Source: PubChem BioAssay AID1224826 (NIAID, 2016)

- Screen: 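Genes that change LPS-induced Tnf promoter activity in mouse macrophages when knocked down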 (primary screen)
- Cell system: RAW264.7 G9 macrophages from mouse bearing reporters for p65 (GFP) and the Tnf promoter (mCherry)
- Reagent: siRNA pool against mouse genes, 100 nM
- Duration: 16 h of LPS stimulation, after 2 days of siRNA transfection
- Challenge: bacterial lipopolysaccharide (Salmonella minnesota R595), 10 ng/ml
- Read-out: 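Imaged Tnf reporter mCherry in nuclei, minus background, normalised per plate to the median and expressed as robust z-scores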
- Scale: Tnf reporter robust z-score: higher = stronger Tnf promoter reporter signal after LPS; Tnf reporter intensity: higher = stronger Tnf promoter reporter signal
- Active means: 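Called active when robust z-score is at most -1.3, matching the median of the Tlr4 knock-down control, or over 3; control wells and wells with under 50 cells never active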
- Meaning of the calls: active = Tnf reporter clearly lowered or raised; inactive = no clear change in Tnf reporter
In all, the deposit lists about 17,000 reagents; below is a random part of them. Over the whole deposit, about 1,110 (6.6%) are marked active. 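Active means lowered or raised reporter signal; replicate intensities are raw and not normalised per plate.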

target | Tnf reporter robust z-score | fewer than 50 cells in well | Tnf reporter intensity, replicate 1 | Tnf reporter intensity, replicate 2 | outcome
Zfp53 (zinc finger protein 53) | 1.06 | enough cells in well | 165 | 174 | inactive
Arhgef39 (Rho guanine nucleotide exchange factor 39) | -0.55 | enough cells in well | 179 | 178 | inactive
Ubap2 (ubiquitin-associated protein 2) | 0.57 | enough cells in well | 288 | 257 | inactive
Vil1 (villin 1) | 0.22 | enough cells in well | 241 | 254 | inactive
Notch1 (notch 1) | 0.03 | enough cells in well | 318 | 126 | inactive
Mycbpap (MYCBP associated protein) | 3.39 | enough cells in well | 423 | 262 | active
Prkrip1 (Prkr interacting protein 1 (IL11 inducible)) | 2.02 | enough cells in well | 266 | 170 | inactive
Eloc (elongin C) | -1.33 | enough cells in well | 153 | 58.3 | active
Nufip1 (nuclear FMR1 interacting protein 1) | -0.66 | enough cells in well | 168 | 99.2 | inactive
Rce1 (Ras converting CAAX endopeptidase 1) | 0.53 | enough cells in well | 373 | 236 | inactive
Slc4a1ap | -0.69 | enough cells in well | 185 | 98.7 | inactive
Caps2 (calcyphosphine 2) | -1.06 | enough cells in well | 98.6 | 123 | inactive
Ebf1 (early B cell factor 1) | 1.27 | enough cells in well | 266 | 117 | inactive
Sumo1 (small ubiquitin-like modifier 1) | -0.25 | enough cells in well | 250 | 201 | inactive
Klk1 (kallikrein 1) | -0.61 | enough cells in well | 161 | 99.2 | inactive
Htr1b (5-hydroxytryptamine (serotonin) receptor 1B) | -0.14 | enough cells in well | 208 | 277 | inactive
Cep57 (centrosomal protein 57) | – | fewer than 50 cells per well; well left out of calls | 157 | 40.8 | inactive
Spef2 (sperm flagellar 2) | – | fewer than 50 cells per well; well left out of calls | 131 | 116 | inactive
Pacsin3 (protein kinase C and casein kinase substrate in neurons 3) | -0.56 | enough cells in well | 180 | 159 | inactive
Eqtn (equatorin, sperm acrosome associated) | -0.79 | enough cells in well | 154 | 53.9 | inactive
Mgst1 (microsomal glutathione S-transferase 1) | 0.52 | enough cells in well | 329 | 225 | inactive
D930030O05Rik (RIKEN cDNA D930030O05 gene) | 0.72 | enough cells in well | 218 | 213 | inactive
Inpp1 (inositol polyphosphate-1-phosphatase) | 1.37 | enough cells in well | 363 | 211 | inactive
Sec61a1 (SEC61 translocon subunit alpha 1) | – | fewer than 50 cells per well; well left out of calls | 63 | 71.5 | inactive

Entries listed above called active:
target | Tnf reporter robust z-score | fewer than 50 cells in well | Tnf reporter intensity, replicate 1 | Tnf reporter intensity, replicate 2 | outcome
Mycbpap (MYCBP associated protein) | 3.39 | enough cells in well | 423 | 262 | active
Eloc (elongin C) | -1.33 | enough cells in well | 153 | 58.3 | active

Further entries follow:
target | Tnf reporter robust z-score | fewer than 50 cells in well | Tnf reporter intensity, replicate 1 | Tnf reporter intensity, replicate 2 | outcome
Gys2 (glycogen synthase 2) | 0.23 | enough cells in well | 292 | 240 | inactive
Pclo (piccolo (presynaptic cytomatrix protein)) | – | fewer than 50 cells per well; well left out of calls | 74.7 | 78.9 | inactive
Khnyn (KH and NYN domain containing) | 1.54 | enough cells in well | 311 | 248 | inactive
Sap30l (SAP30-like) | -0.74 | enough cells in well | 114 | 123 | inactive
Inpp5b (inositol polyphosphate-5-phosphatase B) | – | fewer than 50 cells per well; well left out of calls | 173 | 94.9 | inactive
Tnnc1 (troponin C, cardiac/slow skeletal) | -0.5 | enough cells in well | 219 | 95.2 | inactive
Taf7 (TATA-box binding protein associated factor 7) | 0.34 | enough cells in well | 211 | 180 | inactive
Actr1a (ARP1 actin-related protein 1A, centractin alpha) | -0.13 | enough cells in well | 156 | 168 | inactive
Fbxo34 (F-box protein 34) | 1.21 | enough cells in well | 359 | 185 | inactive
Or5m5 (olfactory receptor family 5 subfamily M member 5) | 0.57 | enough cells in well | 201 | 197 | inactive
Lmf2 (lipase maturation factor 2) | 0.25 | enough cells in well | 222 | 205 | inactive
Or5w11 (olfactory receptor family 5 subfamily W member 11) | -0.8 | enough cells in well | 153 | 97.4 | inactive
Rabepk (Rab9 effector protein with kelch motifs) | 1.88 | enough cells in well | 240 | 278 | inactive
Zbtb8b (zinc finger and BTB domain containing 8b) | 2.45 | enough cells in well | 219 | 85.2 | inactive
Svs3b (seminal vesicle secretory protein 3B) | -1.72 | enough cells in well | 93.9 | 59.7 | active
Tbx22 (T-box 22) | -0.14 | enough cells in well | 212 | 134 | inactive
Asah2 (N-acylsphingosine amidohydrolase 2) | 0.93 | enough cells in well | 283 | 159 | inactive
Nags (N-acetylglutamate synthase) | -0.76 | enough cells in well | 164 | 29.5 | inactive
Dck (deoxycytidine kinase) | – | fewer than 50 cells per well; well left out of calls | 77.1 | 98.7 | inactive
Cenpu (centromere protein U) | – | fewer than 50 cells per well; well left out of calls | 67 | 73 | inactive
Rps6ka1 (ribosomal protein S6 kinase A1) | 0.35 | enough cells in well | 189 | 208 | inactive
Ptpru (protein tyrosine phosphatase receptor type U) | 0.2 | enough cells in well | 334 | 217 | inactive
Clec4d (C-type lectin domain family 4, member d) | -0.67 | enough cells in well | 187 | 162 | inactive
Zfp763 (zinc finger protein 763) | -0.86 | enough cells in well | 105 | 120 | inactive
Rhox9 (reproductive homeobox 9) | – | fewer than 50 cells per well; well left out of calls | 53.2 | 17.4 | inactive
Tnik (TRAF2 and NCK interacting kinase) | -0.1 | enough cells in well | 171 | 149 | inactive
Rab17 (RAB17, member RAS oncogene family) | 0.07 | enough cells in well | 317 | 210 | inactive
Naip2 (NLR family, apoptosis inhibitory protein 2) | 0.28 | enough cells in well | 141 | 149 | inactive
Cyp4f18 (cytochrome P450, family 4, subfamily f, polypeptide 18) | 0.72 | enough cells in well | 241 | 207 | inactive
Trpm3 | 0.4 | enough cells in well | 115 | 117 | inactive
Thap7 (THAP domain containing 7) | 3.77 | enough cells in well | 270 | 209 | active
Icam5 (intercellular adhesion molecule 5, telencephalin) | -0.4 | enough cells in well | 199 | 169 | inactive
Fabp3 (fatty acid binding protein 3, muscle and heart) | -0.15 | enough cells in well | 211 | 226 | inactive
Prr15l (proline rich 15-like) | 1.17 | enough cells in well | 256 | 325 | inactive
